The values below come from patent US20110143394.

The chains behind the UniProt entries cited, without tags or fusion partners. Where a name states a change or a piece, a line headed by the entry shows the natural chain unless it says otherwise.
UniProt Q9K492: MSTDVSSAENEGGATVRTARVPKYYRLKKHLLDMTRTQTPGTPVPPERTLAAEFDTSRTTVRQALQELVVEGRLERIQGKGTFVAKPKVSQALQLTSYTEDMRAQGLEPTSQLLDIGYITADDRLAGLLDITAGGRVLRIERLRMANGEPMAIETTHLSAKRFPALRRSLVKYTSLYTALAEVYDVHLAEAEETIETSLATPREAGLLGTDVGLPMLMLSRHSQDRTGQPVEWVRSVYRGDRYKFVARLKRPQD

The target of this data set is DasR (SCO5231) (Streptomyces coelicolor) (UniProt Q9K492). Put plainly: footprint. The note with it: 10-80 pmol DasR; BSA no protection; purified recombinant protein; protein details: His6; label: 32P.

On to “ACCTTGCTACGCATCGCTCAACCCCAGGCAGGAGTGACGACTGTACACGGGGCCGCGGAACGGGTGCAAATCCGTGAGGAGTGTGGTCTAGACCTCTAATCGGAACACTCATGCGGAACCGGTACTTCCTATGACATACCCTGCTGCTCAGTGTGCCGTCCGGGACAAGGCAGTGACGGCCCGTACAGATCCCCGCCCTGGGAGGCTTCCCATGACCACCGTCTCGTCCCCGCTCGCAGGA (double strand) [crr-ptsI promoter footprint probe (-202/+8)]”, for which the binding result is “binds”.
